One molecule from the supplement of paper PMC12067093, “Discovery and optimisation of a covalent ligand for TRIM25 and its application to targeted protein ubiquitination” (Chemical Science, 2025) can be followed below.

Chains of the proteins cited; added tags and fusions are not shown. Lines headed by an entry give the natural chain unless they say otherwise; changes in a name come on top.
UniProt Q9BYV8: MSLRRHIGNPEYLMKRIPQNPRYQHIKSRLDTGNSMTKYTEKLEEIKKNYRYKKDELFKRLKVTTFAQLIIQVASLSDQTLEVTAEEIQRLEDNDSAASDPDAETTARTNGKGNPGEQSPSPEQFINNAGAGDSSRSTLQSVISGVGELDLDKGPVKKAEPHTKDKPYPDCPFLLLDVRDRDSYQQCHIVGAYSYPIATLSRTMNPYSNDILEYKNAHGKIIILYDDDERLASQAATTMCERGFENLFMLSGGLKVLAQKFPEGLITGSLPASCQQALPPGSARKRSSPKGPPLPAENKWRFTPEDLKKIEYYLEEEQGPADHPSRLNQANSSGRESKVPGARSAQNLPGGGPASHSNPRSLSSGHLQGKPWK
UniProt Q8IW35: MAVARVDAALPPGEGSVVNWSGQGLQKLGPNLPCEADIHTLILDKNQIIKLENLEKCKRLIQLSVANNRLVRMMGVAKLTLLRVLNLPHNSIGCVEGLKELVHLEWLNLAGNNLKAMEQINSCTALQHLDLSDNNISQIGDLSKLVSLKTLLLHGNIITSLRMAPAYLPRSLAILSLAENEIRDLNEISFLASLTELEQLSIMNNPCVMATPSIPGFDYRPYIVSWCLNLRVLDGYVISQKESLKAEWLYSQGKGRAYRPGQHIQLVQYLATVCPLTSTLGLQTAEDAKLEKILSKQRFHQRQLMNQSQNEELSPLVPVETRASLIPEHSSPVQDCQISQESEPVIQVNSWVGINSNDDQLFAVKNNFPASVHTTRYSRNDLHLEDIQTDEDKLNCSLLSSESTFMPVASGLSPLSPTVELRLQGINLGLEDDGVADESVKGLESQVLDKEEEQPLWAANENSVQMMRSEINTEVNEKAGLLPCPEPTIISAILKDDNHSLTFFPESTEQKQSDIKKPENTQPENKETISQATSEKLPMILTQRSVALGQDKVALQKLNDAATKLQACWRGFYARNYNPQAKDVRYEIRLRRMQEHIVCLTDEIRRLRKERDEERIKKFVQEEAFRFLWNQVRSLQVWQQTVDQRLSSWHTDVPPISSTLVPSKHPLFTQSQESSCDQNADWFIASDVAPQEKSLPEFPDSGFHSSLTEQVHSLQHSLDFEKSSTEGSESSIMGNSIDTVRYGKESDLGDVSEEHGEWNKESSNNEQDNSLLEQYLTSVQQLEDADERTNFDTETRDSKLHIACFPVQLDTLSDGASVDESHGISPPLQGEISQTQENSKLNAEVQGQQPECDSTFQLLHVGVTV

Holding throughout (assay): probe-labelled cysteine peptide fold change vs DMSO (competition) (log2 fold change); higher = less target engagement (more negative = stronger competition)
Conditions in all cases: THP-1, incubation time: 4 h

The target in assay [1] is CEP41_Q9BYV8_187_DRDSYQQCHIVGAYSYPIATLSR (UniProt Q9BYV8).
Assay [2] deals with CEP97_Q8IW35_599_MQEHIVCLTDEIR (UniProt Q8IW35).
For assay [3], the target named is CEP97_Q8IW35_599_MQEHIVCLTDEIRR (UniProt Q8IW35).

The other results are listed elsewhere or left out.
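Note: competitive chemoproteomic profiling in live THP-1 cells with an iodoacetamide desthiobiotin (IA-DTB) probe, comparing probe-labelled peptide intensities in compound-treated cells against DMSO-treated controls.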

As for `CC1Cc2ccccc2N1C(=O)C1CCCN(C(=O)CCl)C1` (mixture of isomers) [TRIM25 ligand 11 (diastereomer mixture)], the “probe-labelled cysteine peptide fold change” value was -0.0441 in assay [1] (10 µM); 0.152 in assay [1] (50 µM); 0.146 in assay [2] (10 µM); -0.0961 in assay [2] (50 µM); -0.287 in assay [3] (10 µM); -0.188 in assay [3] (50 µM).
